Measured values as given in the supplement of paper PMC10338343.
± gives the standard deviation. Only a part is listed here, and it is no random draw. Many entries were measured with a wide error.

What follows are sequences tested on MIWI (PIWIL1) piRISC loaded with Kctd7 piRNA (30 nt) (assay: pre-steady-state target cleavage rate (min^-1); MIWI and MILI are mouse PIWI proteins and EfPiwi is from a freshwater sponge; tags in brackets are library labels; higher = faster piRNA-guided slicing of the target). Details: guide: Kctd7 piRNA 5'p-UGUUAAUCUCUCAGAGAAGGUGACAGUGAU; auxiliary factor: 500 nM mouse GTSF1.
Procedure: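 Cleave-'n-Seq: a library of target RNAs (target site embedded in constant flanks, ACAGCATTCCGCGTTAGTGATATCCG... 5' flank; DNA-blocked outside the site) at 0.1 nM was incubated with 1 nM active mouse MILI or MIWI piRISC (synthetic 5'-monophosphorylated piRNA guide) with or without 500 nM mouse GTSF1 at 33 °C for 1 min to 16 h. Uncleaved targets were sequenced and normalised to non-target controls, and the pooled three trials were fitted to a burst-and-steady-state model to give the pre-steady-state cleavage rate (min^-1; k3 is constrained to at most 1e-4). Sequence is the target site only; target names encode pairing extent (gX:gY) and contiguous / 1-mismatch / 2-mismatch / bulge geometry. Fits with R² ≤ 0 are excluded.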

Sequence	pre-steady-state target cleavage rate
UAGUGACAGUGCUUCUCUGACUCAUUAACA	0.000533 ± 0.013
UAGUGACAGACCUUCUCUGAAGAGAUUAACA	0.00012 ± 0.038
UAGUGACAGACGUUCUCAGAGAGAUUAACA	0.00148 ± 0.0067
UACACUGUCACCUUCUCACUGAGAUUAAGA	0.00198 ± 0.0074
UAGUGACACACCUUCUUCUGAGAGAUUAACA	0.00289 ± 0.0048
UAGUGACAGUGGAUCUCUGACAGAUUAUCA	0.000181 ± 0.043
UACACUGUUCACCUUCUCUGAGAGAUUAACA	0.614 ± 0.025
UAGUGAGUCACCUUGUCUGAGAGAUAUUGA	0.00169 ± 0.0063
UAGACUGUCAGCUUCUCUGUGAGAUUAACA	0.198 ± 0.0095
UAGUGACAGUGCUUCUCUGUGAGAUUAAGA	0.000459 ± 0.0097
UAGUGACAGACCUUCUCCUGAGAGAUUAACA	0.00149 ± 0.0075
UACACUCAGACCUUCUCUGAGAGAUAUUGA	0.00374 ± 0.0038
AUCACUGUCACCUUGUCUGAGAGAUAAACA	0.552 ± 0.085
UAGUGACAGACCAAGUCUGAGAGAUUAACA	0.000991 ± 0.0075
UAGUGUGUCACCAACUCUGAGAGAUUUUGA	0.00183 ± 0.0059
UAGACUGUCACCUUGAGUGAGAGAUUAACA	0.00286 ± 0.0032
UAGUGACACUGCUUCUCUGAGAGAUUAUGA	0.00142 ± 0.0051
UAGUGACAGACCUUCUCUCUGAGAUUAAGA	0.000402 ± 0.023
UAGACUGUCACCUUCUCUGAGAGAUUAACA [g2:g27:cont:t1A]	0.805 ± 0.05
UAGUGACAGUCCUUCUGAGAGAGAUUAACA	0.000681 ± 0.011
UAGUGACUCACCUUCUCUGUGACAUUAACA	0.0765 ± 0.0076
UAGUGACUCACCUUCUCUGAGAGUUAUUGA	0.00242 ± 0.004
AUCACUGUCAGCUUCUCUGAGAGUUUAACA	0.149 ± 0.018
UAGUGACUCACCUUCUCACUGAGAUAUUGA	0.000137 ± 0.06

5 neighbouring entries from above:
Sequence	pre-steady-state target cleavage rate
UAGACUGUCAGCUUCUCUGUGAGAUUAACA	0.198 ± 0.0095
UAGUGACAGUGCUUCUCUGUGAGAUUAAGA	0.000459 ± 0.0097
UAGUGACAGACCUUCUCCUGAGAGAUUAACA	0.00149 ± 0.0075
UACACUCAGACCUUCUCUGAGAGAUAUUGA	0.00374 ± 0.0038
AUCACUGUCACCUUGUCUGAGAGAUAAACA	0.552 ± 0.085

(further entries)

Sequence	pre-steady-state target cleavage rate
UAGUGACAGUGGAAGAGUGAGAGAUUUUCA	0.000132 ± 0.066
UAGUGACUCACCUUCUCAGAGAGAUUUUGA	0.00144 ± 0.006
AUCACUCUCACCUUCUCUGAGAGAUUAUGA	0.049 ± 0.018
UAGUGACAGUGGAACUCUGAGAGAUUAAGA	0.00012 ± 0.038
UAGACUGUCAGCUUCUCUGAGAGAUUUUGA	0.000881 ± 0.0084
UAGUGAGUGUCCUUCUCUGAGAGAUAUUGA	0.00104 ± 0.0066
UAGUGACAGUGCUUCUAUGAGAGAUUAACA	0.00203 ± 0.0046
AUCACUGUCACCUUCUCUGAGUCUUAUUGA	0.00266 ± 0.0045
UAGUGACAGUCCUUCUCGAGAGAUUAACA	0.00243 ± 0.0051
UAGUGACAGUGGUUCUCUGUCUCUAAUUGA [g12:g18:cont:t1A]	0.000193 ± 0.031
UAGUGAGUCAGGAUCUCUGAGAGAUUAAGA	0.00166 ± 0.0034
UAGUGACAGUCCUUCUCUGAGAGUUUAAGA	0.000782 ± 0.0088
AUCAUCUGUCACCUUCUCUGAGAGAUUAACA	0.74 ± 0.035
UACACUGUCACCUUCUCUGAGAGAUUACCA	0.152 ± 0.024
UAGUGACACACCUUCUCUGACUGAUUAACA	0.00283 ± 0.0037
UAGUGAGUCAGCUUCUCUGAGAGAAUAACA	0.199 ± 0.032
UAGUCUGUCACCUUCUGACAGAGAUUAACA	0.00156 ± 0.0078
UAGUGACAGUGGAAGAGUGAGCAGAUUAACA	0.0015 ± 0.0034
AUCUCUGUCACCAUCUCUGAGAGAUUAACA	0.633 ± 0.03
UAGUGACAGUGCUUCAUCUGAGAGAUUAACA	0.00237 ± 0.0035
UAGUGACAGACCAUCUGUGAGAGAUUAACA	0.00286 ± 0.0041
UAGUGACAGUGGAAGAGUGCGAGAUUAACA	0.00083 ± 0.01
UAGUGUGUCACCUAGUCUGAGAGAUUUUGA	0.000299 ± 0.029
UACACUGUCACCUUCUCUGAGAGAUUAACG [g2:g28:cont:t1G]	0.566 ± 0.047

Sequence	pre-steady-state target cleavage rate
UUCACUGUCACCUUACUCUGAGAGAUUAACA	0.522 ± 0.026
UUCACUGUCACCUUCUCUGACUGAUUAAGA	0.00224 ± 0.0032
UAGUCUGUCACCUUCUCUGACUCAUUAUGA	0.00102 ± 0.0053
UAGUGAGUCACCUUCACUGAGAGAUUUACA	0.203 ± 0.036
UAGUGACAGUCCUUGUCUGAGAGAUUAAGA	0.000629 ± 0.011
UAGUGACUCACCUUCUCUGACACAUUAACA	0.00928 ± 0.0035
UAGUGACAGUCCUACUCUGAGAGAUUAUCA	0.00187 ± 0.0038
UAGUGACAGUGCUUCUCUCUGAGAUUAAGA	0.000178 ± 0.027
UACACUGUCACCUUCUCUGAGUGAUUUUGA	0.00209 ± 0.0073
UAGUCUGUCACCUUGACUGAGAGAUUUUGA	0.000757 ± 0.0093
UAGACUGUCACGUUCUCUGACAGAUUAACA	0.00161 ± 0.0037
UAGUGACAGUCCUUCUCUGAGAGAAAUACA	0.000997 ± 0.005
UAGUGAGUCAGGAUCUCUGAGAGAUAUUGA	0.000433 ± 0.011
AUCCCUGUCACCUUCUCUGAGAGAUUAACA	0.644 ± 0.051
UAGUGACAGUGCUUCUUUGAGAGAUUAACA	0.00128 ± 0.0056
UAGUGACAGUCCUUCUCUGUCAGAUUAAGA	0.000189 ± 0.035
UUCACUGUCACCUUCUCUGACUCUAAUUGA [g11:g29:cont:t1A]	0.00157 ± 0.0046
UAGACUGUCACCUUCUCUGACAGAUUUACA	0.00202 ± 0.0039
UACACUGUCACCUUCUCUGAGUCAUUUUGA	0.0033 ± 0.0044
UAGUGACAGACCUUCUCUGAGAGAUAACA	0.00229 ± 0.0056
UAGUGACAGUGGUUGUCUGAGAGUUUAACA	0.000589 ± 0.011
UAGUGACAGUGGGUCUCUGAGAGAUUAACA	0.000136 ± 0.027
